This passage reports binding results from patent US20090035317A1, “Peptides binding to vascular endothelial growth factor” (priority 2007, published 2009).

Chains of the proteins cited; added tags and fusions are not shown. Lines headed by an entry give the natural chain unless they say otherwise; changes in a name come on top. A line that says so, or that is headed by a name, gives the form on record, which may keep a tag or linker.
vascular endothelial growth factor (VEGF) (P15692-4, form named): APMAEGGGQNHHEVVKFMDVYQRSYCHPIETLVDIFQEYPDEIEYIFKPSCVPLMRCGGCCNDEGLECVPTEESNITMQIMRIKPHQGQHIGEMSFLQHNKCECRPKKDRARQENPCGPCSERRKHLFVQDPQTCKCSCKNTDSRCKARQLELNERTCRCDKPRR

For assay [1], the target named is T1, vascular endothelial growth factor (VEGF) (UniProt P15692-4 27-191, limits assumed, biotinylated).
T1 construct: Soluble biotinylated VEGF used to label cells that display the peptides; also called biotinylated VEGF
In words: flow cytometry, displayed peptide labeled with 10-nM VEGF, off-rate. In general terms: A flow cytometer gives signals particle by particle.

Assay [2] has as its target T1, vascular endothelial growth factor …. Description: bacterial display, MACS and FACS sorting with VEGF.
Assay [3] has the same target. In words: flow cytometry, displayed peptide, dissociation of VEGF.

Results are given in words; binding and its absence hold for the method and conditions named. Some results given as binding are weak or reduced against the parent protein; the word gives no strength.

Turning to GPGWWLWDWDNLGARRGGL (peptide, not shown: large carriers) [L2.F3A.10], the binding entry in assay [1] and in assay [2] was “binds” throughout.

B1: L2.F4.04 (peptide)
peptide: NFGYGKWEWDYGKWLEKVG
notes: not shown: CPXopt bacterial display scaffold (carrier)
As to B1, the binding result in assay [3], in assay [1] and in assay [2] was “binds” each time.
